Test results reported in the supplement of paper PMC8256030.
Several values for one entry are separate records, joined by “and”; a condition that tells them apart may be missing. Equal values may be shown once. This is one part of the list. This data set is noisy: repeats of one test often differ as much as different tests do.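 HEK293T cells were given each compound shortly before transfection with a reporter in which red mCherry is followed by the SARS-CoV-2 frameshift element and then GFP in the −1 frame, so GFP appears only after frameshifting.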

What was measured:
[1] = test system: SARS-CoV-2 -1 PRF reporter mCherry-FSE-GFP(-1); experiment: mCherry (red) intensity as percent of control; higher = higher upstream reporter expression; details: 10 µM; 24 h; HEK293T
[2] = test system: SARS-CoV-2 -1 PRF reporter mCherry-FSE-GFP(-1); experiment: percent effect, decrease of GFP/mCherry ratio (-1 PRF reporter) relative to controls; higher = stronger frameshift inhibition; details: 10 µM; 24 h; HEK293T

Compound | mCherry [1] | percent effect [2]
CN1CC[C@H](c2c(O)cc(O)c3c(=O)cc(-c4ccccc4Cl)oc23)[C@H](O)C1 [alvocidib] | 10.5% | -3.53%
CCC[C@H](NC(=O)[C@@H]1[C@H]2CCC[C@H]2CN1C(=O)[C@@H](NC(=O)[C@@H](NC(=O)c1cnccn1)C1CCCCC1)C(C)(C)C)C(=O)C(=O)NC1CC1 [Incivik] | 101% | -3.61%
N[C@@H]1[C@H]2CN(c3nc4c(cc3F)c(=O)c(C(=O)O)cn4-c3ccc(F)cc3F)C[C@@H]12 [trovafloxacin] | 97.8% | 5.96%
C[N+](C)(C)CCOP(=O)(O)OP(=O)([O-])OC[C@H]1O[C@@H](n2ccc(N)nc2=O)[C@H](O)[C@@H]1O | 118% | 2.52%
CC(=O)NS(=O)(=O)c1ccc(N)cc1 [sulfacetamide] | 117% | -1.08%
CC(=O)Oc1cccc(O)c1 | 98.2% | -6.45%
CN1C(C(=O)Nc2ccccn2)=C(O)c2sc(Cl)cc2S1(=O)=O [lornoxicam] | 99.9% | -2.8%
Oc1ccccc1/C=N/Cc1ccccc1 [norletimol] | 80.4% | -10.9%
CC(=O)OCC(=O)[C@@]12OC(C)(C)O[C@@H]1C[C@H]1[C@@H]3C[C@H](F)C4=CC(=O)C=C[C@]4(C)[C@@]3(F)[C@@H](O)C[C@@]12C [fluocinonide] | 107% and 87.7% | -0.624% and -1.52%
Cc1cc2nc3ccc(=[N+](C)C)cc-3sc2cc1N [tolonium chloride] | 18.6% | 7.91%
O=C1/C(=C/c2cccs2)CCC/C1=C\c1cccs1 [tenylidone] | 107% | -5.67%
C[C@@H]1[C@H](O)[C@@H](C)/C=C/C=C/C=C/C=C/C=C/C=C/C=C/[C@H](O[C@@H]2O[C@H](C)[C@@H](O)[C@H](N)[C@@H]2O)C[C@@H]2O[C@](O)(C[C@@H](O)C[C@@H](O)[C@H](O)CC[C@@H](O)C[C@@H](O)CC(=O)O[C@H]1C)C[C@H](O)[C@H]2C(=O)O [amphotericin B] | 87.9% | -4.75%
CCCCC1=NC2(CCCC2)C(=O)N1Cc1ccc(-c2ccccc2-c2nnn[nH]2)cc1 [irbesartan] | 102% | 0.454%
C[C@@H]1CN(c2c(F)c(F)c3c(=O)c(C(=O)O)cn(C4CC4)c3c2F)C[C@H](C)N1 [orbifloxacin] | 87.7% | 1.31%
C[C@]12CC[C@H]3C(=CCc4cc(O)ccc43)[C@@H]1CCC2=O [Equilin] | 93.1% | -3.62%
CC=CC(=O)N(CC)c1ccccc1C | 130% | 2.07%
Cc1cc(NS(=O)(=O)c2ccc(N)cc2)nc(C)n1 [sulfisomidine] | 111% | -3.28%
CCCCN(CCCC)CCC(O)c1cc2c(Cl)cc(Cl)cc2c2cc(C(F)(F)F)ccc12 (centres undefined) [halofantrine] | 116% | 2.73%
COc1ccc(O)cc1 [mequinol] | 119% | -4.13%
CCCCc1ccc2[nH]c(NC(=O)OC)nc2c1 [parbendazole] | 77.6% | -6.37%
N[C@@H](CC(=O)N1CCn2c(nnc2C(F)(F)F)C1)Cc1cc(F)c(F)cc1F [sitagliptin] | 103% | 1.1%
O=C(O)CN1CCN(CC(=O)O)CCN(CC(=O)O)CCN(CC(=O)O)CC1 [tetraxetan] | 85.5% | -2.36%

Two of the compounds above, comma-delimited:
Compound,mCherry [1],percent effect [2]
CN1C(C(=O)Nc2ccccn2)=C(O)c2sc(Cl)cc2S1(=O)=O [lornoxicam],99.9%,-2.8%
Oc1ccccc1/C=N/Cc1ccccc1 [norletimol],80.4%,-10.9%
